Here are results for 3 substances from article PMC10624613.

Amino acid sequences for entries named in this document (tags omitted).
UniProt P62330: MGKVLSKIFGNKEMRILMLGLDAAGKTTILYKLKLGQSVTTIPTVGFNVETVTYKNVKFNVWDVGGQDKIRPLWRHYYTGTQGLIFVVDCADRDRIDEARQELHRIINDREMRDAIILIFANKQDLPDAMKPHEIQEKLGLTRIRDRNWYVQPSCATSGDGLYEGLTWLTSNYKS
UniProt P27986: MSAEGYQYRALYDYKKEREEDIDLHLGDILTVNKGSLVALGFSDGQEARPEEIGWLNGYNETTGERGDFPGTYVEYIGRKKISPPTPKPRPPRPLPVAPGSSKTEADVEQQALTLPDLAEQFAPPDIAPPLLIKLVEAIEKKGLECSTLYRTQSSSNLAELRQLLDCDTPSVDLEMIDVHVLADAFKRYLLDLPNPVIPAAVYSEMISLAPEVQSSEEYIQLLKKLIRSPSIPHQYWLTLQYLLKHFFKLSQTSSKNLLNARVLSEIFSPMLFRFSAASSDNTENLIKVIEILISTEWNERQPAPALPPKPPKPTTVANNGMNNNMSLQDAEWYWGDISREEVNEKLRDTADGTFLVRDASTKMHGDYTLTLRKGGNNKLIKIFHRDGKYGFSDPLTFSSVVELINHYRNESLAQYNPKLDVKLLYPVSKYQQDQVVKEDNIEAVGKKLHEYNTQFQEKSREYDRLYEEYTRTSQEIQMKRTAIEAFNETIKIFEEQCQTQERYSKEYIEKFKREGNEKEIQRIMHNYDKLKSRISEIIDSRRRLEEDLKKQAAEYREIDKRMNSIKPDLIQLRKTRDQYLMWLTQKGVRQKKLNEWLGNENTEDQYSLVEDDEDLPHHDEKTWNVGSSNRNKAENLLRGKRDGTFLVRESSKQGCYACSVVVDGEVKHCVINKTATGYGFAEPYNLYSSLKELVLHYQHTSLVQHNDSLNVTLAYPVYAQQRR

In assay [1] the target is T1, F-box ubiquitin E3 ligase FBXO21 (human (endogenous in MOLM-13)) (UniProt O94952).
T1 sequence: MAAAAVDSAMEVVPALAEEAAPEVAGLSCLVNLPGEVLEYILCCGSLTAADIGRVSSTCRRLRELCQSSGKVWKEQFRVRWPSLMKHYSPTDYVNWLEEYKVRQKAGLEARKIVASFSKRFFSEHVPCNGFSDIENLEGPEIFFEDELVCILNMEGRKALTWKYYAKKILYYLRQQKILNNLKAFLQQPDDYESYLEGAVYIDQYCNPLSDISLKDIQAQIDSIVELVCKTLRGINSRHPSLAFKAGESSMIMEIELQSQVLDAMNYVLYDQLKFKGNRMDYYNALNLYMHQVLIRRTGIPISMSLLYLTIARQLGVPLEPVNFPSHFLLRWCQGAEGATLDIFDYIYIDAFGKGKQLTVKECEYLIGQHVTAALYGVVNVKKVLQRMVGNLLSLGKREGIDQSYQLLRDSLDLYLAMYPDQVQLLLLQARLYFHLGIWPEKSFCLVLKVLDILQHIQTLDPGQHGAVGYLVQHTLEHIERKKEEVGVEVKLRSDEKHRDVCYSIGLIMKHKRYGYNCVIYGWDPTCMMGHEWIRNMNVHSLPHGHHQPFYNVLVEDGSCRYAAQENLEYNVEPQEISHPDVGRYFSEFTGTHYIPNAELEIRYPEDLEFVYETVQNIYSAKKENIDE
The assay can be described thus: co-IP; endogenous immunoprecipitation of FBXO21 in MOLM-13 cells, western blot.

The target in another assay is T2, HA-tagged FBXO21 (UniProt O94952).
T2 sequence: T1 sequence
Kind of assay: co-IP; HEK293T cells transiently transfected with GFP-tagged p85α and/or HA-tagged FBXO21/ΔFBXO21; immunoprecipitation of GFP or HA, western blot. In general terms: In western blotting, separated proteins are transferred to a membrane and probed.

These are yes or no findings as the source states them, for the method shown. Binding seen in cells or lysates may run through a third protein. Some results given as binding are weak or reduced against the parent protein; the word gives no strength. For part of these data: Sequences can lack the tags named with a protein.

In the case of ARF6 (from UniProt P62330 1-175), the binding result in assay [1] is “no binding”.
As to “GFP-tagged p85α (from UniProt P27986 1-724)”, the binding entry with HA-tagged FBXO21 is given as “binds”.
Turning to “p85α, regulatory subunit of phosphoinositide 3-kinase (PI3K) (from UniProt P27986 1-724)”, in assay [1], the binding result was “binds”.
